Source: article PMC9090297
Results are given in words; binding and its absence hold for the method and conditions named. Binding seen in cells or lysates may run through a third protein. Some entries that bind do so weakly or less than the wild type.

Amino acid sequences for entries named in this document (tags omitted).
UniProt Q8K0V4: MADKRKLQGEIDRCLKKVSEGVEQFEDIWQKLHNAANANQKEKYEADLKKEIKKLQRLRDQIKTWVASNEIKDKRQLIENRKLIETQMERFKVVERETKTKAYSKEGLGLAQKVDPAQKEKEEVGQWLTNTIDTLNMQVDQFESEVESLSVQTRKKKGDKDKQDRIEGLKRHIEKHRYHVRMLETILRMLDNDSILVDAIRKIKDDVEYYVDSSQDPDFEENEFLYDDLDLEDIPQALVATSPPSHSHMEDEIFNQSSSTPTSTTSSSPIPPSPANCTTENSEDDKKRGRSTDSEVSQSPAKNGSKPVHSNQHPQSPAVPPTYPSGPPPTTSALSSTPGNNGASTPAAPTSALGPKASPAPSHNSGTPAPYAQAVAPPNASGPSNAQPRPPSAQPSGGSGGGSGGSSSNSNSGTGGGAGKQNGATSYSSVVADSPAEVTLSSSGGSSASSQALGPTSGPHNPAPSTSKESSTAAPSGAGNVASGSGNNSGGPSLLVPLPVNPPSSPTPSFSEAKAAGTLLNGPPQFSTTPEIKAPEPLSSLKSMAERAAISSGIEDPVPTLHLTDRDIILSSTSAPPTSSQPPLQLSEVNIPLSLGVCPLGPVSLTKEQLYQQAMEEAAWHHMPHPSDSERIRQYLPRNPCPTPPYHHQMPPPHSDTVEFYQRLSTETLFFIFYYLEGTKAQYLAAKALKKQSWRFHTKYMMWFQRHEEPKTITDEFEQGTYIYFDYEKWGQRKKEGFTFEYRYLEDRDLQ
UniProt Q6ZQ08: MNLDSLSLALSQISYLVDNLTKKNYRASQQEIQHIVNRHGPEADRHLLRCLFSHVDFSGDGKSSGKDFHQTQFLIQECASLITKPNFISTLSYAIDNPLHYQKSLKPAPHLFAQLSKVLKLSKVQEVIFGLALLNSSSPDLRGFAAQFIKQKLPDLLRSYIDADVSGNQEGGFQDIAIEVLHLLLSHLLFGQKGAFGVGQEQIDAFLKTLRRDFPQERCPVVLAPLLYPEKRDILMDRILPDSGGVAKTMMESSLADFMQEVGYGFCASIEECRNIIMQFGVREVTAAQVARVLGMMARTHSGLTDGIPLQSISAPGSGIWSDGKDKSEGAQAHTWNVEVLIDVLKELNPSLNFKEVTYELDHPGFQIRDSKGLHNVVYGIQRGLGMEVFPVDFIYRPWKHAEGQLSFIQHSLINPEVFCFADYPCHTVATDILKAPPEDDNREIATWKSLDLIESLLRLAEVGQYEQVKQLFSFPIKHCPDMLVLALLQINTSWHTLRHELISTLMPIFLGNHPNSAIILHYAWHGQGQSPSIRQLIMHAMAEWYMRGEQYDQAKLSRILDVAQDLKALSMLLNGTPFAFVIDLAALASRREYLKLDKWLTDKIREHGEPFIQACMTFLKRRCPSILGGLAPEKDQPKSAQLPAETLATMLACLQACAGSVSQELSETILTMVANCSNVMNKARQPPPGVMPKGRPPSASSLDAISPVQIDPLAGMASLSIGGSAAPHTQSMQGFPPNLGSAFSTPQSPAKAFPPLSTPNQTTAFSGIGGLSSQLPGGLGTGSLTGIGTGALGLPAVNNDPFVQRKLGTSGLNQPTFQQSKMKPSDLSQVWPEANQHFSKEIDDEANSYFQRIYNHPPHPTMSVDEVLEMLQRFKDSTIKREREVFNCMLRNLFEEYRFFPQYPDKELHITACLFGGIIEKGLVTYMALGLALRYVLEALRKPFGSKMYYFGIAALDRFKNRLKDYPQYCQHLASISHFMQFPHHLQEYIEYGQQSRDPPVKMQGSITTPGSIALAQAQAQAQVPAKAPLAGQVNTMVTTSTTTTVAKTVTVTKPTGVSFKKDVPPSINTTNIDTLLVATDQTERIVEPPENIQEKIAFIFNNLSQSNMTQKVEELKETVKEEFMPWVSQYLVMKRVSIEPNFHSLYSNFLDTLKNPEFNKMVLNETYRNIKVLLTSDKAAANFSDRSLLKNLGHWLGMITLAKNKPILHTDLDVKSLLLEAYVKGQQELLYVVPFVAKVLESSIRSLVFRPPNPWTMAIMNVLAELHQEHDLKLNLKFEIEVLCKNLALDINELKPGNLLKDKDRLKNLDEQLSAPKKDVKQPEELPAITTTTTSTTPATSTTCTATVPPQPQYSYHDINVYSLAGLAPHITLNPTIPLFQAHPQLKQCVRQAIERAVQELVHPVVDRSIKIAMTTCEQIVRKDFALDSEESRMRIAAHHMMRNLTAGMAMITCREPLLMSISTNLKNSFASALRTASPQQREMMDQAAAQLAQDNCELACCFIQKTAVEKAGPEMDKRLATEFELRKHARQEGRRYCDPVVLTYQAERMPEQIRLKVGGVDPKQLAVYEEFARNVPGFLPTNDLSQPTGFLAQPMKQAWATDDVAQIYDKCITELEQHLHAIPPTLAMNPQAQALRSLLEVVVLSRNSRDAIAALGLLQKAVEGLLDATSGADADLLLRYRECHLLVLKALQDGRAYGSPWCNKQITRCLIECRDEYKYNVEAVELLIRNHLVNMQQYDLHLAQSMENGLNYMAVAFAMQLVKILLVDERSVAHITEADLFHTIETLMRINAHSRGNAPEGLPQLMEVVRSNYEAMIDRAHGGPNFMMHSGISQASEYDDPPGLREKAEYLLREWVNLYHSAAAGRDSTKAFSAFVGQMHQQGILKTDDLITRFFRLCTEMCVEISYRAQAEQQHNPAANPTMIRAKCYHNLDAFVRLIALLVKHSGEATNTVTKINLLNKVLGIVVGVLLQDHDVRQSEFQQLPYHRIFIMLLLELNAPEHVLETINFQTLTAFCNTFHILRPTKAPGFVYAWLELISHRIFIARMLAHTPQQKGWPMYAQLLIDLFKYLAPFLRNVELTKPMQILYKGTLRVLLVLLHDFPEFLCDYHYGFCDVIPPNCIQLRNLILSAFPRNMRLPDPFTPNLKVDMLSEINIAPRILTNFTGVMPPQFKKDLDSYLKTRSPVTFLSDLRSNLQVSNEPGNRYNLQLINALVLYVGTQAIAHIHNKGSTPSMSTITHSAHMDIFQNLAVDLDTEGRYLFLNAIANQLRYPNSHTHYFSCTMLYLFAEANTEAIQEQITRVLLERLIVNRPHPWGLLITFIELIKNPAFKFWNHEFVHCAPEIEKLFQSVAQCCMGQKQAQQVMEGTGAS
UniProt Q60809: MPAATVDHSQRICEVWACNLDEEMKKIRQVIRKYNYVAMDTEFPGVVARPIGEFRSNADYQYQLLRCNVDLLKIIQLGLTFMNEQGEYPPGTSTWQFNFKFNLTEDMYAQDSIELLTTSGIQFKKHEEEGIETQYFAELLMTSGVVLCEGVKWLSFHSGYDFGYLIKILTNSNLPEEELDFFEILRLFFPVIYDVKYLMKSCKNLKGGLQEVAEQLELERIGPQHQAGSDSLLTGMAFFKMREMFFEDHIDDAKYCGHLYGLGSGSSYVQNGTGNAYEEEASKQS
UniProt Q9D8X5: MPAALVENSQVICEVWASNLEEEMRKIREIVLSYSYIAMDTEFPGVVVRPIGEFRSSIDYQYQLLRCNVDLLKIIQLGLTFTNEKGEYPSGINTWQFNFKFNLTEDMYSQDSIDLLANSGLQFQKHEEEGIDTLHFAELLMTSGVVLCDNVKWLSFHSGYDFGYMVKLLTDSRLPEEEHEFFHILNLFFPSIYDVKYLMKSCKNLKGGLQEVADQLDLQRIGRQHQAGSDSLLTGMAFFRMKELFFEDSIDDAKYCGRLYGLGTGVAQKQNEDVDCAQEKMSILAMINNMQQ

Target: CNOT3 (mouse (endogenous in liver)) (UniProt Q8K0V4)
Assay: co-IP; anti-CNOT3 antibody on mouse liver lysate in TNE buffer (50 mM Tris-HCl pH 7.5, 150 mM NaCl, 1 mM EDTA, 1% NP40, 1 mM PMSF), Dynabeads Protein G, 4°C; control IgG in parallel; immunoblot of the precipitate

| binding | Substance |
| --- | --- |
| binds | CNOT1 (from UniProt Q6ZQ08 1-2375) |
| binds | CNOT6L (from UniProt Q8VEG6 1-555) |
| binds | CNOT7 (from UniProt Q60809 1-285) |
| binds | CNOT8 (from UniProt Q9D8X5 1-292) |
